The target of the assay is Cleaved N-terminal fragment of DFNA5 tagged with internal Flag (human). The assay can be described thus: co-IP.

No constants are given. Whether binding was seen depends on the method and setting. In cells and extracts the contact can be indirect. A result given as binding can be weak or reduced; the word gives no strength. Sequences can lack the tags named with a protein.

B1: CHMP4B tagged with V5 (protein, UniProt Q9H444 1-224)
chain: MSVFGKLFGAGGGKAGKGGPTPQEAIQRLRDTEEMLSKKQEFLEKKIEQELTAAKKHGTKNKRAALQALKRKKRYEKQLAQIDGTLSTIEFQREALENANTNTEVLKNMGYAAKAMKAAHDNMDIDKVDELMQDIADQQELAEEISTAISKPVGFGEEFDEDELMAELEELEQEELDKNLLEISGPETVPLPNVPSIALPSKPAKKKEEEDDDMKELENWAGSM
Take B1: the binding entry is reported as “binds”.

These data come from publication doi:10.1101/2021.04.27.441709.
